Measurements published in doi:10.1101/2024.10.14.618141.
These are yes or no findings as the source states them, for the method shown. Some binding calls cover weakened binding; strength is not graded here.

Protein sequences, listed by entry. Tags and fused reporters are not part of them. Lines headed by an entry give the natural chain unless they say otherwise; changes in a name come on top. Chains listed by the source or under a name are the forms on record and can include a tag or linker. Residues count along the entry.
UniProt Q9NYV4: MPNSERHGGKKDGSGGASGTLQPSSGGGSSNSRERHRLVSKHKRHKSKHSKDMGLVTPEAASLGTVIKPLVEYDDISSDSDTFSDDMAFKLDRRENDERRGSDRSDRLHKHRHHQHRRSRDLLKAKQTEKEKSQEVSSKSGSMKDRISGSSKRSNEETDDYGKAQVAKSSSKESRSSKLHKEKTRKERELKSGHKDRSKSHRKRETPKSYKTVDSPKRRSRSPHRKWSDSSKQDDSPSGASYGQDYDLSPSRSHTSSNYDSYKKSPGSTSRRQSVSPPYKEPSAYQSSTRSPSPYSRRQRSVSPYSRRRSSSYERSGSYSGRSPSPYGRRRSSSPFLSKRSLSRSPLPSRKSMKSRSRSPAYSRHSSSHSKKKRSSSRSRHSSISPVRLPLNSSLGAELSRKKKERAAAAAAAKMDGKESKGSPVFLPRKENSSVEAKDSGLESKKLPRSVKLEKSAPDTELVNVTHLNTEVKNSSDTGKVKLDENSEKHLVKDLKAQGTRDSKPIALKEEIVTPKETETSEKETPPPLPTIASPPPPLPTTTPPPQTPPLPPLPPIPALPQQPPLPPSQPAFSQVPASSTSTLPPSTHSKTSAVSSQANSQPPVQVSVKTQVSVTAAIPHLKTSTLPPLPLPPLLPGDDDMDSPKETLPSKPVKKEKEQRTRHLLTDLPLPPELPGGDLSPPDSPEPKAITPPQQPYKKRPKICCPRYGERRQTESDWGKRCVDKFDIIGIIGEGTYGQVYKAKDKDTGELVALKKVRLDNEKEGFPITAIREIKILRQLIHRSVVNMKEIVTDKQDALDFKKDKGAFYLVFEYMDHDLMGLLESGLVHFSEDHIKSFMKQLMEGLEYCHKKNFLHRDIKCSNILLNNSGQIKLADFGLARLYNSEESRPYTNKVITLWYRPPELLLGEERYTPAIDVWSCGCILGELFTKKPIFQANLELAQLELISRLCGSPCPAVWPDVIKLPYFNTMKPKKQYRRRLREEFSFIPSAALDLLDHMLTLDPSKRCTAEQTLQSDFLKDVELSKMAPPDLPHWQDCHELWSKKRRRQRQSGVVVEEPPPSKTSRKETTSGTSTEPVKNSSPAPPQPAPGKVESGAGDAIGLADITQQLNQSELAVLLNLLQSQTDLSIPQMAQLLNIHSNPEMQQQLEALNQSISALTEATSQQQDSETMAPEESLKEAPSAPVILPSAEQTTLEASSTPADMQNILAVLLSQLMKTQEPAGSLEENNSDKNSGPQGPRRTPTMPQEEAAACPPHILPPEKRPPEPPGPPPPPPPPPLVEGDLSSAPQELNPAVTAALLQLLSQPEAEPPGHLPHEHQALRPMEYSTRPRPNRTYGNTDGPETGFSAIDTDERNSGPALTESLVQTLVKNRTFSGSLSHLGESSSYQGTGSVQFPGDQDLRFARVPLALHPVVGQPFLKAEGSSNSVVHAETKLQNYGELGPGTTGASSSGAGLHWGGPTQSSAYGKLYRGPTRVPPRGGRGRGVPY
Flag(N)-CDK12ΔCTD (1-1082): residues 1-1082 of Q9NYV4
Flag(N)-CDK12ΔNTD (700-1490): residues 700-1490 of Q9NYV4
Flag(N)-CDK12-KiD (700-1082): residues 700-1082 of Q9NYV4
Flag(N)-CDK12ΔRS (Δ104-380) (Q9NYV4, form named): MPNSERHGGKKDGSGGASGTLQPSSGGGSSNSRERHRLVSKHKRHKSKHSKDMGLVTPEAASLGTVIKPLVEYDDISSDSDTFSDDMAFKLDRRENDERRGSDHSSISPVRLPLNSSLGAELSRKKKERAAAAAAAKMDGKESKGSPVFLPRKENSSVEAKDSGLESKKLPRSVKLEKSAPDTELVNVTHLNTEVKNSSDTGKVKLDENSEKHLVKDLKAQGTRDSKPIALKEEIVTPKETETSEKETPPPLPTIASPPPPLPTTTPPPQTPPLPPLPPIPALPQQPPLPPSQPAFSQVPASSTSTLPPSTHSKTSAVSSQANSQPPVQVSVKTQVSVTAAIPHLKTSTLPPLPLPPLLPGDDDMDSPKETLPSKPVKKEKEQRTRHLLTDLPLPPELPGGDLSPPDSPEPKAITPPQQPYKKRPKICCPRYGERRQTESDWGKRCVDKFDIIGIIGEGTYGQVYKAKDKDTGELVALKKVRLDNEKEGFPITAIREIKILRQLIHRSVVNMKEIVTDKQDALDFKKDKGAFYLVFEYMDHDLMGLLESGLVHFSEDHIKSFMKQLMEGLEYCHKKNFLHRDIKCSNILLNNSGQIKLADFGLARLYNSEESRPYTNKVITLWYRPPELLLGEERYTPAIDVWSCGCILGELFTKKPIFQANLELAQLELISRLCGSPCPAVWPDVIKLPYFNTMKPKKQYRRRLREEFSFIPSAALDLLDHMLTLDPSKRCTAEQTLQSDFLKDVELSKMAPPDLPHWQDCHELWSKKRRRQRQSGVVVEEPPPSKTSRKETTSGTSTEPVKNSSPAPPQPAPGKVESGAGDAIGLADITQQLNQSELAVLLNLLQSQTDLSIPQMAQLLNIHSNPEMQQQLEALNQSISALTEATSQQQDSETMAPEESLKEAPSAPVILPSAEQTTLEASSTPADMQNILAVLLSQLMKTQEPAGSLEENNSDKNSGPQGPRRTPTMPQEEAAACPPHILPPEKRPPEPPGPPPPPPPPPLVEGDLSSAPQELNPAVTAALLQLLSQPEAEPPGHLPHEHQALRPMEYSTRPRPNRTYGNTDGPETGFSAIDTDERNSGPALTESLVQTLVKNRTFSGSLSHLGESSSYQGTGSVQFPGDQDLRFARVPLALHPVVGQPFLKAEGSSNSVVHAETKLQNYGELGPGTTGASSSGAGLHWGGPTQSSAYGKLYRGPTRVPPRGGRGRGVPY
UniProt Q14004: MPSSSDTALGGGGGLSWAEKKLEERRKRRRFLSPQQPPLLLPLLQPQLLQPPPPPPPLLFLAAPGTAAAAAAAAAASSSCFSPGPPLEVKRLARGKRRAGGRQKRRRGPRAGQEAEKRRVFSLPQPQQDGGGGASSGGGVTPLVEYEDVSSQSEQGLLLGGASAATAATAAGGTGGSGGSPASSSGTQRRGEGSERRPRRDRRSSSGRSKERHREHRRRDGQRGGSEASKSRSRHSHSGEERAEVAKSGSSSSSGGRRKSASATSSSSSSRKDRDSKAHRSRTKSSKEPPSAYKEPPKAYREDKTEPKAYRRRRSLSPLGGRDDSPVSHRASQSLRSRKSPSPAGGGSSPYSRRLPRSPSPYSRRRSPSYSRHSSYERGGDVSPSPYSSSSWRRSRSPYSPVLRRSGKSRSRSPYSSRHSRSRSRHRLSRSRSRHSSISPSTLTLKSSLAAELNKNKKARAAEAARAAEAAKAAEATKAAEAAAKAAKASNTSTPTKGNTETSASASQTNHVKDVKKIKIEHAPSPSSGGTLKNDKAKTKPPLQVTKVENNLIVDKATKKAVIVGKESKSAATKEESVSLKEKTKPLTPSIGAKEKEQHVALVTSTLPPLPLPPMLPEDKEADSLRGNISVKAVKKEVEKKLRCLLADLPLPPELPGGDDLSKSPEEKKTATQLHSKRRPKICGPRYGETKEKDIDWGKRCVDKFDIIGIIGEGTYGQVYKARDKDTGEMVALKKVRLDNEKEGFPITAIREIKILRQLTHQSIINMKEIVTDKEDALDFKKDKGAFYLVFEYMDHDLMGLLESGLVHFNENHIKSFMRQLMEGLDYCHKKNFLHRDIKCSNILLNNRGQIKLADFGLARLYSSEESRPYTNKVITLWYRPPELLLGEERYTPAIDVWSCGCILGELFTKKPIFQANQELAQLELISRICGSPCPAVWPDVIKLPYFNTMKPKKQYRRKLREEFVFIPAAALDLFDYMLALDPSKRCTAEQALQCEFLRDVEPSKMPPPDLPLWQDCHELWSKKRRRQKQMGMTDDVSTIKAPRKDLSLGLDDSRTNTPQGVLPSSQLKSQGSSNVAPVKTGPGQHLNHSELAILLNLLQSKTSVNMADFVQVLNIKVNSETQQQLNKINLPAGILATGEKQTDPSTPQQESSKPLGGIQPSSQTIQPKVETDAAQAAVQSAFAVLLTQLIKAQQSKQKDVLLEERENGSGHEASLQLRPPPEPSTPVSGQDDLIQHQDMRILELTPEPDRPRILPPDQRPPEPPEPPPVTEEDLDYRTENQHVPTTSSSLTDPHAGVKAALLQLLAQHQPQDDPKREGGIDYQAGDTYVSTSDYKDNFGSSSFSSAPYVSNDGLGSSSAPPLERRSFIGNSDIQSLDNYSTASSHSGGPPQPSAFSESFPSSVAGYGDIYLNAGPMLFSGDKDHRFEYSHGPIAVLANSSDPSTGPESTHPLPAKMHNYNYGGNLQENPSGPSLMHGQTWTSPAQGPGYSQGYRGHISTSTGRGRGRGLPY
UniProt O75909: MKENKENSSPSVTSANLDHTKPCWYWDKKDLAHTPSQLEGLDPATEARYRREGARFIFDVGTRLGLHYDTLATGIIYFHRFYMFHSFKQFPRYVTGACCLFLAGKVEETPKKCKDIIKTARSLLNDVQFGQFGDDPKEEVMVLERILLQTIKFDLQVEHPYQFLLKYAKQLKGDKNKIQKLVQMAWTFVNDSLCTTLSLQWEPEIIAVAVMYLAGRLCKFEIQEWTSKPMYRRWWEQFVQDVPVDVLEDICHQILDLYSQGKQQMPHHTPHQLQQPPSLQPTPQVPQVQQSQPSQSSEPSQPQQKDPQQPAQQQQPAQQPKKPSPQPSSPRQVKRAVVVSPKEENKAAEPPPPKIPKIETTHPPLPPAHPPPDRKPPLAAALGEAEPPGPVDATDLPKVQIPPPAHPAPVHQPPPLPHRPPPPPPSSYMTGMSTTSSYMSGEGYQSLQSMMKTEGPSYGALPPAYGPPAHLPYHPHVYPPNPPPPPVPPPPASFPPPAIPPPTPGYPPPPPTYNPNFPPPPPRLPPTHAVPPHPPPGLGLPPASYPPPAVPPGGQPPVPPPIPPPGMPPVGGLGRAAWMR

Legend:
Test in all cases: co-purification of co-expressed proteins
[1] = target: Flag(N)-CDK12, full length (human) (UniProt Q9NYV4)
[2] = target: Flag(N)-CDK12-KiD (700-1082) (human) (UniProt Q9NYV4)
[3] = target: Flag(N)-CDK12ΔCTD (1-1082) (human) (UniProt Q9NYV4)
[4] = target: Flag(N)-CDK12ΔNTD (700-1490) (human) (UniProt Q9NYV4)
[5] = target: Flag(N)-CDK12ΔRS (Δ104-380) (human) (UniProt Q9NYV4)
[6] = target: Flag(N)-CDK13, full length (human) (UniProt Q14004)

- binding [1]: binds
- binding [2]: binds
- binding [3]: binds
- binding [4]: binds
- binding [5]: binds
- binding [6]: binds
Substance: Cyclin K (from UniProt O75909 1-580)
